Measurements as given in patent US20250003978A1, “DIAGNOSIS AND TREATMENT OF ANTI-PF4 INDUCED THROMBOCYTOPENIA” (The Regents of the University of California, priority 2021, published 2025).
No constants are given. Whether binding was seen depends on the method and setting. Some binding calls cover weakened binding; strength is not graded here.

Amino acid sequences for entries named in this document (tags omitted). A change or cut given only in a name is not applied to a line headed by its entry.
UniProt P08514: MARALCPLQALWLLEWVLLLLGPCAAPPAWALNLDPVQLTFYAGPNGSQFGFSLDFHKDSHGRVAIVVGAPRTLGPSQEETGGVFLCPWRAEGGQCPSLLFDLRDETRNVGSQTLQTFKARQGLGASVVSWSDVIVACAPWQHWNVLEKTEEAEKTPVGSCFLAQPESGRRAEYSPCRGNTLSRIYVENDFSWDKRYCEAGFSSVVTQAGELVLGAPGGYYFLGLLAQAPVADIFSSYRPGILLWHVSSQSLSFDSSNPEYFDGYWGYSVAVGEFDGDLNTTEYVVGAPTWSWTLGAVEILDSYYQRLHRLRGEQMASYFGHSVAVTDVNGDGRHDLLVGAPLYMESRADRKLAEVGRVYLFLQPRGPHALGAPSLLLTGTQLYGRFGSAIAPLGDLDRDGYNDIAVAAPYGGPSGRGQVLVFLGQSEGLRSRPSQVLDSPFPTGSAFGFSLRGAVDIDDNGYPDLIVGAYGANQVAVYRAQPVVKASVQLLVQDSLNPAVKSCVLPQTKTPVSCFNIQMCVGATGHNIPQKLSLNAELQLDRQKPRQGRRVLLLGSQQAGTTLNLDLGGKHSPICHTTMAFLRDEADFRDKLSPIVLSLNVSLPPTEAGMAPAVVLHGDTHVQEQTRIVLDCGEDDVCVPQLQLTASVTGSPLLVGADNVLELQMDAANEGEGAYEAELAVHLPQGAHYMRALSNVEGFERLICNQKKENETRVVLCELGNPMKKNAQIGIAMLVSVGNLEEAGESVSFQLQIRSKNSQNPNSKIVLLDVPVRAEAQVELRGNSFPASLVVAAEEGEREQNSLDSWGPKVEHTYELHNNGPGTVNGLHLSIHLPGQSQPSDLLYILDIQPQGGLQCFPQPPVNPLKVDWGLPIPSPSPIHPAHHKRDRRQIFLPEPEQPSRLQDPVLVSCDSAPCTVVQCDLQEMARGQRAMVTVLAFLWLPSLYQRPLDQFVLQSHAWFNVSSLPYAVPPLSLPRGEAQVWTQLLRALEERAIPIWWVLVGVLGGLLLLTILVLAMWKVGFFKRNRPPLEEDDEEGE
UniProt P06756: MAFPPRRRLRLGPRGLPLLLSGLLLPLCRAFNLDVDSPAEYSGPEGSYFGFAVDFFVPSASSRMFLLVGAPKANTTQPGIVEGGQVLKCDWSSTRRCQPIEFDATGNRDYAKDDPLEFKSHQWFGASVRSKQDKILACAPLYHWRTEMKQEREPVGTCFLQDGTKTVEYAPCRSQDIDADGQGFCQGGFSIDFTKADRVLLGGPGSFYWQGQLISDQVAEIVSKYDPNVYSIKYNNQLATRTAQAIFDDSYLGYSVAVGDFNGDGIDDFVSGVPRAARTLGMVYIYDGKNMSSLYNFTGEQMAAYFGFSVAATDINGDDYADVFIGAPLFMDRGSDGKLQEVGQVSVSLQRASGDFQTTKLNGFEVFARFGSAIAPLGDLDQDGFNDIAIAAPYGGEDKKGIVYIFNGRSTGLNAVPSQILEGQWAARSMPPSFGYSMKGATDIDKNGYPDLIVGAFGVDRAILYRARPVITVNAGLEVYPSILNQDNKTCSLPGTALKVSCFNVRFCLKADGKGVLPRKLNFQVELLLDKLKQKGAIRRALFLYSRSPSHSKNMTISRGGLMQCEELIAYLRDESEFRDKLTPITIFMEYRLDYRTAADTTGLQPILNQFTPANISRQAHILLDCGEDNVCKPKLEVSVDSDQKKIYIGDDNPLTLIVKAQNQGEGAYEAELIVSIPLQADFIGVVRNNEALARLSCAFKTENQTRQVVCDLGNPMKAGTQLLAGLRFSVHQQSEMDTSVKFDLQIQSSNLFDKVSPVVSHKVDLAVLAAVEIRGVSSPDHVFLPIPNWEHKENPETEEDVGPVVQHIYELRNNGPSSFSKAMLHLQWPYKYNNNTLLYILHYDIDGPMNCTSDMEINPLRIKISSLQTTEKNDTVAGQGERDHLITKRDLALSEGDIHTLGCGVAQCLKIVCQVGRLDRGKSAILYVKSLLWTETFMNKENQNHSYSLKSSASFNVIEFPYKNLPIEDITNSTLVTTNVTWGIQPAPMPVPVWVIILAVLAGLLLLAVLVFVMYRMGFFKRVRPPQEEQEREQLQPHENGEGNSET

Legend:
[1] = target: soluble recombinant integrin αIIbβ3 (UniProt P08514); assay: ELISA-type binding, cell-free, 1 mM Mn2+
[2] = target: soluble recombinant integrin αvβ3 (UniProt P06756); assay: ELISA-type binding, cell-free, 1 mM Mn2+
[3] = target: soluble recombinant integrin αIIbβ3 (UniProt P08514); assay: ELISA-type binding, authentic PF4 6.25 µg/ml, 1 mM Mn2+
[4] = target: soluble recombinant integrin αvβ3 (UniProt P06756); assay: as above
[5] = target: soluble recombinant integrin αIIbβ3 (UniProt P08514); assay: ELISA-type binding, 1 mM Mn2+
[6] = target: soluble recombinant integrin αvβ3 (UniProt P06756); assay: ELISA-type binding, 1 mM Mn2+

Measured: binding

B1: PF4 (platelet factor 4, chemokine CXCL4), preparation generated in the inventors' lab (ligand, not shown: small tags and cut ends)
chain: EAEEDGDLQCLCVKTTSQVRPRHITSLEVIKAGPHCPTAQLIATLKNGRKICLDLQAPLYKKIIKKLLES
binds: [1] | [2]

B2: authentic PF4 (Invitrogen) (ligand, UniProt P02776 32-101, looked up)
chain: B1 chain
binds: [3] | [4] | [5] | [6]
